In PubChem BioAssay AID588590 (National Center for Advancing Translational Sciences (NCATS), 2011):
Several values for one entry are separate records, joined by “and”; a condition that tells them apart may be missing. Equal entries are not always repeated. Screen size: about 390,000 compounds; about 4,000 (1%) were called active. Inconclusive results, whose numbers are uncertain, are shown with a selection of clear calls. Calls follow the shape of the dose curve; as a rule, active = well fitted inhibition curve with a large enough effect; inconclusive = small, poorly fitted or top-dose-only effect, or another doubt; inactive = no such curve, though single readings can be large or run the other way. A potency beside an inconclusive call is a rough fit, not a confirmed value.

Protein sequences, listed by entry. Tags and fused reporters are not part of them. Lines headed by an entry give the natural chain unless they say otherwise; changes in a name come on top.
UniProt Q9UNA4: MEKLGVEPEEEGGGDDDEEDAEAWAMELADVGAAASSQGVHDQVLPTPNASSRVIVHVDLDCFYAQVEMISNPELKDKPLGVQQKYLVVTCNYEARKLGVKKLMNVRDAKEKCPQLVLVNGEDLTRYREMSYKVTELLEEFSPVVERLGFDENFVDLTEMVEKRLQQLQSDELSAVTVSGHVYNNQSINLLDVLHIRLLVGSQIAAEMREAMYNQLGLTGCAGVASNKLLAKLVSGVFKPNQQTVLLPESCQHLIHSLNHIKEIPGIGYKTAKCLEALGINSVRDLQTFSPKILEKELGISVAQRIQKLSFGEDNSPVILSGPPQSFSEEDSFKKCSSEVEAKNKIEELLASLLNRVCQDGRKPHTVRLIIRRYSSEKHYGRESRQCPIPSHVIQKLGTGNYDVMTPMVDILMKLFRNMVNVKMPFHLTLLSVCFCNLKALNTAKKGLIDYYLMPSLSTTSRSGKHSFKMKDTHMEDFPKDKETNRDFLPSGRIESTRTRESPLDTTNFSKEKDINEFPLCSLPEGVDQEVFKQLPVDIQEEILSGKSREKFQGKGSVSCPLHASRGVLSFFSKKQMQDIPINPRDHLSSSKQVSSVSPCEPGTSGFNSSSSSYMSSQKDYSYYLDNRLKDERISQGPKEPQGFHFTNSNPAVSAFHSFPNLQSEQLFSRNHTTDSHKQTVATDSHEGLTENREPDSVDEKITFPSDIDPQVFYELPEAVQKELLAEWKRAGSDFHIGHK

The molecules below were run against DNA polymerase iota (Homo sapiens) (UniProt Q9UNA4) (assay: qHTS for Inhibitors of Polymerase Iota). Conditions: Pol iota fluorescent replication assay, 10 min; series mostly up to 115 µM.
How it was run: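 Fluorescent replication assay read twice, at 0 min and 10 min after adding 50 nM (final) substrate. Enzyme (10 nM) and compounds were first incubated 15 min at room temperature; enzyme-free buffer wells were negative controls.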
Potency is read from the fitted curve at half-maximal effect.

| Compound | Potency |
| --- | --- |
| Cc1cc(O)c2c(c1)C(=O)c1cc(O)cc(O)c1C2=O | inconclusive: 3.98 µM [inhibitor, full curve, poor fit] and inconclusive: 28.2 µM [inhibitor, partial curve] |
| CC12CN3C(O)C(C)(C1)CC(C)(C2)C3O (centres undefined) | inconclusive: 112 µM [inhibitor, single point] |
| CCOc1ccc(-n2c(-c3cccs3)nc3ccccc3c2=O)cc1 | inconclusive: 12.6 µM [inhibitor, partial curve, poor fit] |
| CCCCC(=O)N/N=C/c1c(O)n(Cc2ccco2)c(=O)[nH]c1=O | inconclusive: 22.4 µM [inhibitor, full curve, poor fit] |
| COC12C(COC(N)=O)C3=C(C(=O)C(C)=C(N)C3=O)N1CC1C2N1C (centres undefined) | inconclusive: 56.2 µM [inhibitor, partial curve, poor fit] |
| COC(=O)C1=C(c2ccc(S(C)(=O)=O)cc2)C[C@@H]2CC[C@H]1N2C(=O)N1CCOCC1 | inconclusive: 100 µM [inhibitor, single point] |
| Cn1cccc1/C=C1/C(=O)NC(=S)N(Cc2ccc(F)cc2)C1=O | active: 20 µM |
| COc1ccc(CC2C(=O)NC(=O)NC2=O)c(OC)c1 | inconclusive: 39.8 µM [inhibitor, single point] |
| CN1CCN(/N=C/c2c(O)n(CCC3=CCCCC3)c(=S)[nH]c2=O)CC1 | inconclusive: 25.1 µM [inhibitor, single point] |
| Cc1cccc(OCCn2cccc2/C=C2/C(=O)NC(=O)N(Cc3ccco3)C2=O)c1 | active: 8.91 µM |
| CC(=O)Nc1ccc(N=Cc2c(O)n(Cc3ccco3)c(=O)[nH]c2=O)cc1 | active: 44.7 µM |
| COc1ccc(CCn2c(O)c(C=NCc3cccnc3)c(=O)[nH]c2=O)cc1OC | inconclusive: 35.5 µM [inhibitor, single point] |
| CCC(C)N1C(=O)/C(=C\c2cnc(N(C)C)nc2)C(=O)NC1=S (centres undefined) | inconclusive: 39.8 µM [inhibitor, partial curve, poor fit] |
| CCN(CCCl)Cc1ccccc1Br | inconclusive: 22.4 µM [inhibitor, single point] |
| NC1=C([N+](=O)[O-])C(c2ccc3c(c2)OCO3)c2c(c3ccccc3oc2=O)O1 (centres undefined) | inactive |
| O=c1c2ccccc2nc(/C=C\c2ccccc2F)n1-c1ccc(O)cc1 | inconclusive: 89.1 µM [inhibitor, partial curve, poor fit] |
| C[C@@H]1C[C@@H]2O[C@H]2/C=C\C=C\C(=O)Cc2c(Cl)c(O)cc(O)c2C(=O)O1 | inconclusive: 10 µM [inhibitor, partial curve, poor fit] |
| c1ccc2nc3ccccc3cc2c1 | inconclusive: 31.6 µM [inhibitor, partial curve] |
| C[C@H](CCC(=O)O)[C@H]1CC[C@H]2[C@@H]3CC[C@@H]4C[C@H](O)CC[C@]4(C)[C@H]3CC[C@]12C | inconclusive: 0.794 µM [inhibitor, full curve, poor fit] |
| COC(=O)C1=C(c2ccccc2)C[C@@H]2CC[C@H]1N2C(=O)NCc1ccc(F)cc1 | inactive |

Taken from the listing for reference:

| Compound | Potency |
| --- | --- |
| CCOc1ccc(-n2c(-c3cccs3)nc3ccccc3c2=O)cc1 | inconclusive: 12.6 µM [inhibitor, partial curve, poor fit] |
| CCCCC(=O)N/N=C/c1c(O)n(Cc2ccco2)c(=O)[nH]c1=O | inconclusive: 22.4 µM [inhibitor, full curve, poor fit] |

Additional records follow:

| Compound | Potency |
| --- | --- |
| CCOc1ccc(CC2C(=O)NC(=O)N(c3ccc(CC)cc3)C2=O)cc1 (centres undefined) | inconclusive: 39.8 µM [inhibitor, single point] |
| Nc1ccc(N2CCN(Cc3ccccc3Cl)CC2)c(Cl)c1 | inconclusive: 3.16 µM [inhibitor, single point] |
| CCOC(=O)Nc1ccc(NCc2ccc(F)cc2)nc1N | active: 3.98 µM |
| Cc1nc2cc(C(F)(F)F)ccc2n1C1CCN(Cc2nnnn2CCc2ccccc2)CC1 | inconclusive: 7.94 µM [inhibitor, partial curve, poor fit] |
| Cc1cc(/C=C2\C(=O)NC(=O)N(c3ccc(F)cc3)C2=O)c(C)n1-c1cccc(C(=O)O)c1 | active: 22.4 µM |
| CCOC(=O)c1ccc(-[n+]2c(-c3ccccc3)cc(-c3ccccc3)cc2-c2ccccc2)cc1 | inconclusive: 112 µM [inhibitor, partial curve, poor fit] |
| O=C1NC(=O)N(Cc2ccco2)C(=O)/C1=C\c1cccn1CCOc1ccc(Cl)cc1 | active: 12.6 µM |
| CCN(CC)S(=O)(=O)c1ccc(C(=O)O)cc1 | inconclusive: 89.1 µM [inhibitor, single point] |
| CCCCCn1c(=O)c(C(=O)Nc2ccccc2)c(O)c2ccccc21 | inactive |
| NS(=O)(=O)c1ccc(-c2ccc(C=C3C(=O)NC(=O)NC3=O)o2)cc1 | inconclusive: 15.8 µM [inhibitor, full curve, poor fit] |
| COc1ccc(OC)c(-n2c(O)c(/C=C3\C=Nc4ccccc43)c(=O)[nH]c2=O)c1 | inconclusive: 17.8 µM [inhibitor, partial curve, poor fit] |
| CC(=O)Nc1cc(Cl)c(N=Cc2ccc(O)cc2O)cc1Cl | inconclusive: 2.82 µM [inhibitor, full curve] |
| CCOC(=O)C1=CC(=C2C(=O)N(CC)C(=S)N(CC)C2=O)c2ccccc2O1 | inconclusive: 28.2 µM [inhibitor, partial curve, poor fit] |
| O=C(CC1CCCCC1)c1c(O)c2ccccc2oc1=O | inconclusive: 20 µM [inhibitor, partial curve, poor fit] |
| Cc1ccc(OCCOc2cccc(C=C3C(=O)NC(=O)NC3=O)c2)cc1 | inconclusive: 31.6 µM [inhibitor, partial curve, poor fit] |
| O=C(O)CC1OCC=C2CN3CCC45c6ccccc6NC4C1C2CC35 (centres undefined) | inconclusive: 63.1 µM [inhibitor, single point] |
| CNC(=O)OCC[N+](C)(C)C | inconclusive: 0.0891 µM [inhibitor, full curve, poor fit] |
| O=C1NC(=O)N(Cc2ccco2)C(=O)/C1=C/C=C/c1ccco1 | inconclusive: 3.55 µM [inhibitor, full curve, poor fit] |
| COc1ccc(Cl)cc1S(=O)(=O)Nc1cccc(-c2ccc(N3CCCC3)nn2)c1 | inconclusive: 39.8 µM [inhibitor, single point] |
